Source: PMC3247243
These are yes or no findings as the source states them, for the method shown. Binding seen in cells or lysates may run through a third protein. A result given as binding can be weak or reduced; the word gives no strength.

Sequences of proteins named here, by UniProt entry; tags and fusion partners are left off. A change or cut given only in a name is not applied to a line headed by its entry.
UniProt Q8WX93: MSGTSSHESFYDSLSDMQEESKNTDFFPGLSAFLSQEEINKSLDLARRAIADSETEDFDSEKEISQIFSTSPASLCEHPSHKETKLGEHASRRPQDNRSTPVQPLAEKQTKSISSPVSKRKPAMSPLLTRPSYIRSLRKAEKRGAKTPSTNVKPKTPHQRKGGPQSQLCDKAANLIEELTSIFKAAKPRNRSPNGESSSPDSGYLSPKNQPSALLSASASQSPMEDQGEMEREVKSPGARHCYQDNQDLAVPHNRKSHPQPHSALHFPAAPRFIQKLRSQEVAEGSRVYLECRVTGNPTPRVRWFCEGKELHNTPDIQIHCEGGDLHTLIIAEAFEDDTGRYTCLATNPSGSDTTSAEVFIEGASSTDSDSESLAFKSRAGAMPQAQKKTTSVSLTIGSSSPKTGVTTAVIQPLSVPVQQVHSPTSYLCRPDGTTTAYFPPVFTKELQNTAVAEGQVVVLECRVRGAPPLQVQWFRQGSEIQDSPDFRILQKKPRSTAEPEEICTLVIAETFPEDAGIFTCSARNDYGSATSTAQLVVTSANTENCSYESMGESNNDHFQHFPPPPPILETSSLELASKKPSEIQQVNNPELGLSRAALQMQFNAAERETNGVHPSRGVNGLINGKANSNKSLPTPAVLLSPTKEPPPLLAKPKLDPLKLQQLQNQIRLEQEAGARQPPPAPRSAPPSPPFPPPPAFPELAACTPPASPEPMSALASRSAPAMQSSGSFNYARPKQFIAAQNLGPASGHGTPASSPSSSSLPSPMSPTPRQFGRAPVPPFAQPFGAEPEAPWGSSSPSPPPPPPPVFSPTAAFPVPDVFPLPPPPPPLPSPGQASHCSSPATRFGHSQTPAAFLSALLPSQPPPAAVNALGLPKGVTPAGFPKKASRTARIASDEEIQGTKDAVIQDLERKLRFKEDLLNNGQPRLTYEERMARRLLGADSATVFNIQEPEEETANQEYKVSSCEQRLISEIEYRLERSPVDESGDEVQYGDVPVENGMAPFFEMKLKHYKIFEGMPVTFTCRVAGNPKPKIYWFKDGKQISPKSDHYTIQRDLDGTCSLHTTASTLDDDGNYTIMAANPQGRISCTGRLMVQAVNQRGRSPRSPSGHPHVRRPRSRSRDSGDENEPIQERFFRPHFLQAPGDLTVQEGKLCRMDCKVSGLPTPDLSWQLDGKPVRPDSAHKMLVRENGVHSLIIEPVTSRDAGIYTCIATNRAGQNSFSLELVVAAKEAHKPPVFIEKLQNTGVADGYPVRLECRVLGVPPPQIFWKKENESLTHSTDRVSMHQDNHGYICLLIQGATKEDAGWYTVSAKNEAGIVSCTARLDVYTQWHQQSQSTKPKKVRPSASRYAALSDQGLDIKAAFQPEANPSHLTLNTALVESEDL
UniProt P00519: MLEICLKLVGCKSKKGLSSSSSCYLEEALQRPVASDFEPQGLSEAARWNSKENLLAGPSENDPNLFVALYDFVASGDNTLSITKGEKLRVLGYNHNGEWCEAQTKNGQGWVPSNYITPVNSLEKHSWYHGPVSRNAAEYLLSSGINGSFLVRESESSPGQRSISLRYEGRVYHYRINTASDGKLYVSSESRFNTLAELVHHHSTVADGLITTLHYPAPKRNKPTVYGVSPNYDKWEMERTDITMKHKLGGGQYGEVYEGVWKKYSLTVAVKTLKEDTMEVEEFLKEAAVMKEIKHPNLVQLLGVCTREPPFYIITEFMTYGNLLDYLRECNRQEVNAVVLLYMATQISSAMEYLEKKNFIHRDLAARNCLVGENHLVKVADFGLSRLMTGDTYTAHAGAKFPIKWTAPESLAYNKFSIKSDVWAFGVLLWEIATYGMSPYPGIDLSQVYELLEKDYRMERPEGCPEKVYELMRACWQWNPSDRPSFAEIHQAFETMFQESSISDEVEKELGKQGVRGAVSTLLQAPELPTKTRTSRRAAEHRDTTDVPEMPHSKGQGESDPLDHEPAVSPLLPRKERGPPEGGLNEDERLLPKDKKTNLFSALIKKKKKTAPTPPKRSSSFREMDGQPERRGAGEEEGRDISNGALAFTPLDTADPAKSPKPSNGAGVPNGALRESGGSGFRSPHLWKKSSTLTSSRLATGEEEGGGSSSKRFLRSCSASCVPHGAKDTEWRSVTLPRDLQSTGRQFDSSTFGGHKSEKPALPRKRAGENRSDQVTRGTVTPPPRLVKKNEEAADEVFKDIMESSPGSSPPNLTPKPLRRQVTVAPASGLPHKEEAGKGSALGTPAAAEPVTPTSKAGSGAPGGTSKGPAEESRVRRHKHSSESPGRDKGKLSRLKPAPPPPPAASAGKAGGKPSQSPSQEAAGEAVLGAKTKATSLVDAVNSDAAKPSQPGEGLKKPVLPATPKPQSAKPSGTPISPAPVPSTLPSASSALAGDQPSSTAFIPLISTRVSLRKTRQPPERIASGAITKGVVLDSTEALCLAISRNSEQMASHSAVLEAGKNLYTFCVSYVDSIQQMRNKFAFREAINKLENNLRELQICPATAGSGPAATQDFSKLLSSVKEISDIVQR

Target: endogenous palladin (human (endogenous in MDA-MB-231)) (UniProt Q8WX93)
Assay: co-IP; MDA-MB-231 lysates immunoprecipitated with anti-palladin antibody or control IgG, blotted with anti-Abl and anti-palladin; also serum-starved cells with or without EGF stimulation

binding: binds
Substance: endogenous Abl tyrosine kinase (from UniProt P00519 1-1130) (enzyme)
